Experimental data taken from PubChem BioAssay AID758 (NMMLSC, 2007).
Out of some 190,000 compounds screened, about 110 (0.058%) were called active. This list was built around the results that the source calls inconclusive (neither active nor inactive); the mix of calls is not that of the screen.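 Rule for the calls: active = fluorescent GTP binding to Rab7 beads changed by at least 20 points from the 100% baseline, either direction, mostly lower; inconclusive = compound itself probably fluorescent, or too few beads counted; inactive = the rest.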

Each compound was assayed on Rab7 GTPase wild type (dog), Bodipy-FL-GTP binding (assay: modulators of GTP binding to Rab7, primary screen, biochemical, wildtype, multiplex bead flow cytometry (AID 758;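 note: median green fluorescence of bound Bodipy-FL-GTP per Rab7 bead population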)). Conditions: GST-Rab7 beads, fluorescent GTP binding, at 10 µM, actives lie on both sides, untreated = 100%, excess cold GTP = 0%.

Q: For `O=S1(=O)CCN(Cc2cccc(Cl)c2)CC1`, which GTP binding activity (percent of control) is on record?
A: The GTP binding activity (percent of control) was inconclusive: 100%.

Q: With `CNC(=S)N=Nc1c(O)[nH]c2ccccc12` as the compound, how does the GTP binding activity (percent of control) read?
A: Its GTP binding activity (percent of control) is inactive: 85%.

Q: `COc1ccc(-n2c(C)cc(/C=C3/SC(=S)N(C)C3=O)c2C)cc1` was tested. Which GTP binding activity (percent of control) did it give?
A: The GTP binding activity (percent of control) was inconclusive: 210%.

Q: For `Cc1cc(=O)[nH]c(-c2ccccc2O)n1`, which GTP binding activity (percent of control) is on record?
A: Its GTP binding activity (percent of control) is inconclusive: 98%.

Q: With `COc1cccc(C(=O)NC(=S)Nn2cnnc2)c1OC` as the compound, how does the GTP binding activity (percent of control) read?
A: The GTP binding activity (percent of control) was inactive: 102%.

Q: Which GTP binding activity (percent of control) does the source give for `C=CCn1c(=O)c2ccccc2n2c(SCc3cc(=O)n4ccsc4n3)nnc12` here?
A: The GTP binding activity (percent of control) was inconclusive: 107%.

Q: How did the GTP binding activity (percent of control) turn out when `Cc1ccc(OCc2nn3c(-c4ccco4)nnc3s2)cc1` was run?
A: The GTP binding activity (percent of control) was inconclusive: 100%.

Q: For `O=S(=O)(NCc1ccc2c(c1)OCO2)c1cccc(S(=O)(=O)N2CCOCC2)c1`, which GTP binding activity (percent of control) is on record?
A: The GTP binding activity (percent of control) was inactive: 93%.

Q: For `Cc1ccc(CN2C(=O)N/C(=C/c3ccc4c(c3)n(C)c(=O)n4C)C2=O)cc1`, which GTP binding activity (percent of control) is on record?
A: Its GTP binding activity (percent of control) is inconclusive: 104%.

Q: `O=C(CC(c1ccccc1)c1ccccc1O)NCCN1CCOCC1` (stereo not given) was tested. Which GTP binding activity (percent of control) did it give?
A: Its GTP binding activity (percent of control) is inconclusive: 101%.

Q: `NC(=O)C1(N2CCCCC2)CCN(C(=S)NC2CCCC2)CC1` was tested. Which GTP binding activity (percent of control) did it give?
A: Its GTP binding activity (percent of control) is inactive: 95%.

Q: For `COc1cc(C=O)ccc1OCc1cccc(Br)c1`, which GTP binding activity (percent of control) is on record?
A: Its GTP binding activity (percent of control) is inconclusive: 98%.

Q: Which GTP binding activity (percent of control) does the source give for `COc1ccc(OCc2nc(N)nc(Nc3ccc(C)cc3)n2)cc1` here?
A: Its GTP binding activity (percent of control) is inconclusive: 94%.

Q: `CN(CCC1CCCCO1)C(=O)CCc1nnc(C2CCCCC2)o1` (stereo not given) was tested. Which GTP binding activity (percent of control) did it give?
A: Its GTP binding activity (percent of control) is inactive: 94%.

Q: With `O=C(C(Cc1ccccc1)N1C(=O)C2C3C=CC(C3)C2C1=O)N1CCCCCC1` (stereo not given) as the compound, how does the GTP binding activity (percent of control) read?
A: Its GTP binding activity (percent of control) is inactive: 95%.

Q: `O=S(=O)(c1ccc2c(c1)N(Cc1ccc(Cl)cc1)C1CCCN21)N1CCOCC1` (stereo not given) was tested. Which GTP binding activity (percent of control) did it give?
A: The GTP binding activity (percent of control) was inactive: 99%.

Q: `CN(C)/C=C(\C#N)C(N)=C(C#N)C#N` was tested. Which GTP binding activity (percent of control) did it give?
A: The GTP binding activity (percent of control) was inconclusive: 85%.

Q: `Cc1[nH]c2ccccc2c1C(=O)COC(=O)Cn1c(C(F)(F)F)nc2ccccc21` was tested. Which GTP binding activity (percent of control) did it give?
A: The GTP binding activity (percent of control) was inconclusive: 102%.

Q: `c1ccc(OCc2nc(-c3cccs3)no2)cc1` was tested. Which GTP binding activity (percent of control) did it give?
A: Its GTP binding activity (percent of control) is inactive: 95%.

Q: With `COc1ccc(C(=O)N/N=c2\oc3ccccc3cc2C(N)=O)cc1` as the compound, how does the GTP binding activity (percent of control) read?
A: The GTP binding activity (percent of control) was inconclusive: 90%.

Q: With `O=C(Nc1c(F)cc(F)cc1Br)c1ccco1` as the compound, how does the GTP binding activity (percent of control) read?
A: The GTP binding activity (percent of control) was inconclusive: 102%.

Q: Which GTP binding activity (percent of control) does the source give for `COc1cc2c(cc1NC(=O)CN1CCN(S(=O)(=O)c3ccc(F)cc3)CC1)oc1ccccc12` here?
A: The GTP binding activity (percent of control) was inconclusive: 104%.

Q: Which GTP binding activity (percent of control) does the source give for `Cc1ccc(N=Nc2c(N)[nH]n3c(=O)cc(C)nc23)cc1` here?
A: Its GTP binding activity (percent of control) is inactive: 92%.

Q: `Cc1ccc(S(=O)(=O)CCC(=O)OC(C)C(=O)c2c(C)[nH]c3ccccc23)cc1` (stereo not given) was tested. Which GTP binding activity (percent of control) did it give?
A: Its GTP binding activity (percent of control) is inactive: 100%.

Q: Which GTP binding activity (percent of control) does the source give for `CCOc1cc(S(=O)(=O)NCc2ccncc2)ccc1Cl` here?
A: Its GTP binding activity (percent of control) is inactive: 95%.

Q: With `Cc1cc(Oc2ccccc2)nc(SCC(=O)Nc2ccc(Cl)cc2Cl)n1` as the compound, how does the GTP binding activity (percent of control) read?
A: Its GTP binding activity (percent of control) is inconclusive: 102%.

Q: Which GTP binding activity (percent of control) does the source give for `COc1cccc(/C=N/NC(=O)c2[nH]c(C)c(C(=O)N/N=C/c3cccc(OC)c3)c2C)c1` here?
A: Its GTP binding activity (percent of control) is inconclusive: 95%.

Q: How did the GTP binding activity (percent of control) turn out when `CC(C)(C)c1cnnn1-c1ccc([N+](=O)[O-])cc1` was run?
A: Its GTP binding activity (percent of control) is inactive: 94%.

Q: `COCCCNC(=O)c1cc2c(-c3ccc(Cl)cc3)nn(C)c2s1` was tested. Which GTP binding activity (percent of control) did it give?
A: The GTP binding activity (percent of control) was inconclusive: 88%.

Q: With `COc1ccc(S(=O)(=O)N2CCC(C(=O)N3CCc4ccccc4C3)CC2)cc1C` as the compound, how does the GTP binding activity (percent of control) read?
A: The GTP binding activity (percent of control) was inconclusive: 90%.

Q: `O=S(=O)(c1ccc2nc(-c3ccco3)c(-c3ccco3)nc2c1)N1CCOCC1` was tested. Which GTP binding activity (percent of control) did it give?
A: Its GTP binding activity (percent of control) is inconclusive: 93%.

Q: `COc1cc(OC)c(S(=O)(=O)N2CCCCC2)cc1S(=O)(=O)N1CCCCC1` was tested. Which GTP binding activity (percent of control) did it give?
A: Its GTP binding activity (percent of control) is inconclusive: 102%.

Q: `O=S(=O)(/C=C/c1ccccc1)N1CCN(Cc2ccc3c(c2)OCO3)CC1` was tested. Which GTP binding activity (percent of control) did it give?
A: Its GTP binding activity (percent of control) is inconclusive: 89%.

Q: How did the GTP binding activity (percent of control) turn out when `Cc1cc(C)nc(Nc2ncc(O)n2-c2ccc(C)c(C)c2)n1` was run?
A: Its GTP binding activity (percent of control) is inconclusive: 97%.

Q: For `O=C(c1cccc(N2C(=O)C3C4C=CC(C4)C3C2=O)c1)N1CCCCCC1` (stereo not given), which GTP binding activity (percent of control) is on record?
A: Its GTP binding activity (percent of control) is inactive: 107%.

Q: `CCOc1cc(/C=C2/NC(=O)N(CC(=O)Nc3cccc(C)c3)C2=O)ccc1OCC(N)=O` was tested. Which GTP binding activity (percent of control) did it give?
A: Its GTP binding activity (percent of control) is inconclusive: 96%.

Q: `Cc1sc2c(c1C)c(=O)nc1n2Cc2ccccc2-1` was tested. Which GTP binding activity (percent of control) did it give?
A: The GTP binding activity (percent of control) was inconclusive: 88%.

Q: How did the GTP binding activity (percent of control) turn out when `CCCC(=O)Nc1ccc(C(=O)n2ccc(C)n2)cc1` was run?
A: Its GTP binding activity (percent of control) is inactive: 106%.

Q: Which GTP binding activity (percent of control) does the source give for `CC1CC(NS(=O)(=O)c2cccs2)CC(C)(C)C1` (stereo not given) here?
A: The GTP binding activity (percent of control) was inconclusive: 101%.

Q: `COc1ccc(Cn2nc(-c3ccccc3)c(N3CCCCC3)cc2=O)cc1` was tested. Which GTP binding activity (percent of control) did it give?
A: The GTP binding activity (percent of control) was inconclusive: 94%.

Q: Which GTP binding activity (percent of control) does the source give for `CCC(COC)NCc1cn(-c2ccc(OC)cc2)nc1-c1cccc(F)c1` (stereo not given) here?
A: Its GTP binding activity (percent of control) is inactive: 98%.

Q: How did the GTP binding activity (percent of control) turn out when `Cc1sc(NC(=O)/C=C/c2ccc(C(C)C)cc2)c(C#N)c1C` was run?
A: The GTP binding activity (percent of control) was inconclusive: 96%.

Q: `Cc1ccc(NC(=S)NNC(=O)c2cn(C)nc2C)cc1` was tested. Which GTP binding activity (percent of control) did it give?
A: Its GTP binding activity (percent of control) is inactive: 107%.

Q: How did the GTP binding activity (percent of control) turn out when `CSc1nc2ccccc2cc1/C=C(\C#N)c1ccc(Cl)c(Cl)c1` was run?
A: The GTP binding activity (percent of control) was inconclusive: 94%.

Q: Which GTP binding activity (percent of control) does the source give for `CC(C)Cc1csc(NC(=O)c2ccc(Cl)cc2)c1C(=O)O` here?
A: Its GTP binding activity (percent of control) is inactive: 95%.
